In patent publication US20240400691A1 (FBD BIOLOGICS, published 2024):
No constants are given. Whether binding was seen depends on the method and setting. Some entries that bind do so weakly or less than the wild type.

Sequences of proteins named here, by UniProt entry; tags and fusion partners are left off. Residues count along the entry.
UniProt Q9NZQ7, residues 19-290: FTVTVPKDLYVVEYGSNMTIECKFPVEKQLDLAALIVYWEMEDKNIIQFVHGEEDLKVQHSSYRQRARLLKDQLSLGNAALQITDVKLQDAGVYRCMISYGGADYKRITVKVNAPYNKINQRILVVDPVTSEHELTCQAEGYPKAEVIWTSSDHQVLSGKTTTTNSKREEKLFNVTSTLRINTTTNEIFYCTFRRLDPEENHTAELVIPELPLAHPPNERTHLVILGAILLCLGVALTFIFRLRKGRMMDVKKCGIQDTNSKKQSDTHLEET

Key:
[1] = biological target: T1, human PD-L1 (human, UniProt Q9NZQ7 19-290); assay: flow cytometry on PD-L1 tf CHO-S cells; positive control
T1 construct: whole, on cells; For the PD-L1 tf DLD1 cells the species of PD-L1 is not restated; also called PD-L1 tf CHO-S; PD-L1 tf DLD1

[2] = biological target: T1, human PD-L1; assay: flow cytometry on a 1:1 mixture of PD-L1 tf DLD1 cells and DLD1 cells
[3] = biological target: T1, human PD-L1; assay: flow cytometry on PD-L1 tf DLD1 cells in a 1:1 mixture with DLD1 cells, PE goat anti-human IgG [D]

Measured: binding

B1: anti-PD-L1 VHH (2H4) (VHH)
VHH: QVQLVESGGGVVQPGRSLRLSCAASGGPFMSYAMGWFRQAPGKEREFVAAIRWNGISTFYADSVKGRFTISRDNSKNTLYLQMNSLRAEDTAVYYCAAAQTIVTVPENYHFDYWGQGTQVTVSS
binds: all assays above
